This note sets out measurements from PMC4895691, “Suppressor of IKKɛ is an essential negative regulator of pathological cardiac hypertrophy” (Nature Communications, 2016).

These are yes or no findings as the source states them, for the method shown. In cells and extracts the contact can be indirect. Some results given as binding are weak or reduced against the parent protein; the word gives no strength. For part of these data: Tags and fused reporters may be left off the sequences shown.

Experiment [1] concerns the target T1, Tbk1, endogenous in neonatal rat cardiomyocytes (rat (endogenous in neonatal rat cardiomyocytes)) (UniProt D4A7D3).
T1 sequence: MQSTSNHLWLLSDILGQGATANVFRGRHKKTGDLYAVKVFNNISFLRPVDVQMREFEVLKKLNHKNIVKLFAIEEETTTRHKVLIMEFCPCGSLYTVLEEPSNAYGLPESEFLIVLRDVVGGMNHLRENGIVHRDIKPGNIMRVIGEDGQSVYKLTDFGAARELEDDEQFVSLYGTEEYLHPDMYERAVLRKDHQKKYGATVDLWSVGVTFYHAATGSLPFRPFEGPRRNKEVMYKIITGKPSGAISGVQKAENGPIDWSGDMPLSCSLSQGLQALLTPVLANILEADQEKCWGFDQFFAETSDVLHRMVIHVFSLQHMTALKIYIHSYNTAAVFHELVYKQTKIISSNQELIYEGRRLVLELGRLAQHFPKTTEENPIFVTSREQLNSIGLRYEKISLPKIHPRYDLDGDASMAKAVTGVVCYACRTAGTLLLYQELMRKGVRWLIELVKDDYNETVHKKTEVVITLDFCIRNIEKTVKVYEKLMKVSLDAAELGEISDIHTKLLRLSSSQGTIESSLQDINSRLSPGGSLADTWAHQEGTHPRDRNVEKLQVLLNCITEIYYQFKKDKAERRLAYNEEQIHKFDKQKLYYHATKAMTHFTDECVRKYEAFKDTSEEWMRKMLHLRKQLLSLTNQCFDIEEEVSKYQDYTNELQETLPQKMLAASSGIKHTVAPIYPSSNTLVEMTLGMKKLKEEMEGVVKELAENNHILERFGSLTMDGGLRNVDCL
The experiment can be described thus: co-IP; endogenous proteins, cytoplasmic portion of neonatal rat cardiomyocytes; IP with TBK1 antibody or SIKE antibody; immunoblot.

For experiment [2], the target named is T2, Tbk1, endogenous in mouse heart (mouse (endogenous in heart tissue)) (UniProt Q9WUN2).
T2 sequence: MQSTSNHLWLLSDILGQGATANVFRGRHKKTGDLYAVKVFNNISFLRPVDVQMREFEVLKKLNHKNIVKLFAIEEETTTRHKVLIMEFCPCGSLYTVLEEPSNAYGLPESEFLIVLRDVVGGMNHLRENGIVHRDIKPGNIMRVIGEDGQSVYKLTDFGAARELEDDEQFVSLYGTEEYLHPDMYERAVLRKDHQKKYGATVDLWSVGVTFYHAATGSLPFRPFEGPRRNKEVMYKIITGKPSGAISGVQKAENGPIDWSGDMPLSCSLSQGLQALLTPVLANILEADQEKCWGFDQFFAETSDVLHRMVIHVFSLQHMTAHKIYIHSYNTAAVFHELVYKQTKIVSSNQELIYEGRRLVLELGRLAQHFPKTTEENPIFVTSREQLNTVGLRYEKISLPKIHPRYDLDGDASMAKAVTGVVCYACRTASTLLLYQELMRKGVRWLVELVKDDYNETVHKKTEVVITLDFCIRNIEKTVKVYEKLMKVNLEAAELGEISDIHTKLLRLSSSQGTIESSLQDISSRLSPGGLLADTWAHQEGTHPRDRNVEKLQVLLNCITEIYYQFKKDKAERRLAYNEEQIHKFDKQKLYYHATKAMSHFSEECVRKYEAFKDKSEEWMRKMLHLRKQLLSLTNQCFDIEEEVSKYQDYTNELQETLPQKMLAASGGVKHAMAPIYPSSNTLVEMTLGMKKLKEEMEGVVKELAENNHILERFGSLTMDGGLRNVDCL
The experiment can be described thus: co-IP; endogenous proteins, heart tissue of wild-type mice 4 weeks after sham surgery (basal conditions).

Experiment [3] concerns the target T3, Flag-tagged TBK1 (TANK-binding kinase 1), human, full length (human) (UniProt Q9UHD2).
T3 sequence: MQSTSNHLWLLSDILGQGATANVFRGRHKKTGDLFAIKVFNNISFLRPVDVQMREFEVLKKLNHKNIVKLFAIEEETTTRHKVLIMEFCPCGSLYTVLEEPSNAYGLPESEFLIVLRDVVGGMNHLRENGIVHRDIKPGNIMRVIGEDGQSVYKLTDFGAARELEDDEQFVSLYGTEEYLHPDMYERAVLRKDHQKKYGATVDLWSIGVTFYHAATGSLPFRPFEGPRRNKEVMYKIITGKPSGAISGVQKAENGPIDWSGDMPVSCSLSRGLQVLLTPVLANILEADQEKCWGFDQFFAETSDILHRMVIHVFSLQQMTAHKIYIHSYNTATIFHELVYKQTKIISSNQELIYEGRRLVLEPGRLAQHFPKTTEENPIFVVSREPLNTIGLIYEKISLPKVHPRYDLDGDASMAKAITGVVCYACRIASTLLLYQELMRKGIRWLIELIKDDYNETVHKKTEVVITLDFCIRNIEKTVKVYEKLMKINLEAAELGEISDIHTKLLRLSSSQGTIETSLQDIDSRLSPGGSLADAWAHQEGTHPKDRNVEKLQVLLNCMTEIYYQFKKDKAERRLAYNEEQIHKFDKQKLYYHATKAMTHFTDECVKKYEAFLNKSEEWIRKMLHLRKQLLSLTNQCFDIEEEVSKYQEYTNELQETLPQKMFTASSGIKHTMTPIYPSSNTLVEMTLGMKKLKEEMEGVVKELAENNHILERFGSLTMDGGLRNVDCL
The experiment can be described thus: co-IP; HEK293T cells co-transfected with Myc-SIKE and Flag-TBK1 plasmids (full length or truncates), harvested after 48 h; lysis buffer 20 mM Tris-HCl pH 7.4, 150 mM NaCl, 1 mM EDTA, 1% Triton X-100; IP with Flag or Myc antibody and protein G-agarose, 4 °C overnight; immunoblot. For orientation: Immunoblotting shows a protein as a band on a membrane.

B1: Sike, endogenous in neonatal rat cardiomyocytes (protein, UniProt Q5FWT9 1-207)
chain: MSCTIEKILTDAKTLLERLREHDAAAESLVDQSAALHRRVAAMREAGAVLPEQYQEDASDVKDMSKYKPHILLSQENTQIRDLQQENRELWVSLEEHQDALELIMSKYRKQMLQLMVAKQAVDAEPVLKAHQSHSAEIESQIDRICEMGAVMRRAVQVDDNQFCKIQEKLAQLELENKELRELLSISSESLQVGKESSVAPEAQTIR
For B1, the binding result in experiment [1] is listed as “binds”.

B2: Sike, endogenous in mouse heart (protein, UniProt Q9CPR7 1-207)
chain: MSCTIEKILTDAKTLLERLREHDAAAESLVDQSAALHRRVAAMREAGAVLPEQYQEDASDVKDMSKYKPHILLSQENTQIRDLQQENRELWVSLEEHQDALELIMSKYRKQMLQLMVAKKAVDAEPVLKAHQSHSAEIESQIDRICEMGAVMRRAVQVDDNQFCKVQERLAQLELENKELRELLSISSESLQVGKESSVAPASQTIK
For B2, the binding result in experiment [2] was “binds”.

B3: Myc-tagged SIKE (suppressor of IKKɛ), human, full length (protein, UniProt Q9BRV8 1-207)
chain: MSCTIEKILTDAKTLLERLREHDAAAESLVDQSAALHRRVAAMREAGTALPDQYQEDASDMKDMSKYKPHILLSQENTQIRDLQQENRELWISLEEHQDALELIMSKYRKQMLQLMVAKKAVDAEPVLKAHQSHSAEIESQIDRICEMGEVMRKAVQVDDDQFCKIQEKLAQLELENKELRELLSISSESLQARKENSMDTASQAIK
Take B3: the binding entry in experiment [3] is “binds”.
